This test concerns the target CCNB1-mCherry (cyclin B1 tagged at the endogenous locus) (human (endogenous in HeLa)) (UniProt P14635). The test is described as follows: affinity purification with mass spectrometry; CCNB1-mCherry or CCNB1-GFP precipitated with sheep anti-mCherry or anti-GFP antibodies and protein G-sepharose (2 h, 4°C) from lysates of HeLa cells arrested with 0.3 µM nocodazole for 16 h; parental HeLa as control; 20 mM Tris-HCl pH 7.4, 150 mM NaCl, 1% Igepal CA-630, 0.1% sodium deoxycholate; eluted with glycine pH 2.6.

Protein sequences, listed by entry. Tags and fused reporters are not part of them.
UniProt P14635: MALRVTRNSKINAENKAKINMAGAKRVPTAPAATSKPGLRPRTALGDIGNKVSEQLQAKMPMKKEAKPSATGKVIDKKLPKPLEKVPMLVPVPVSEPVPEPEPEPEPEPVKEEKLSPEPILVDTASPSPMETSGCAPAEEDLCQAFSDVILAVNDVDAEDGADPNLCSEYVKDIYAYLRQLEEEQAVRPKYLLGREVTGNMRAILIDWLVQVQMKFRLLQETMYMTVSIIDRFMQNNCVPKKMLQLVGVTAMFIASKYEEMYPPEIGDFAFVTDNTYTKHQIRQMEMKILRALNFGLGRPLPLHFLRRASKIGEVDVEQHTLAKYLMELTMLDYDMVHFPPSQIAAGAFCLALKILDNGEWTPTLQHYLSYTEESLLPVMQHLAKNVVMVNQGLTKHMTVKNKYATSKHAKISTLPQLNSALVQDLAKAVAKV
UniProt P33552: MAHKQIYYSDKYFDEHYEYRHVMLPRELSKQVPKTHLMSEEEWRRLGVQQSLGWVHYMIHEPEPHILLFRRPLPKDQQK
UniProt Q14980: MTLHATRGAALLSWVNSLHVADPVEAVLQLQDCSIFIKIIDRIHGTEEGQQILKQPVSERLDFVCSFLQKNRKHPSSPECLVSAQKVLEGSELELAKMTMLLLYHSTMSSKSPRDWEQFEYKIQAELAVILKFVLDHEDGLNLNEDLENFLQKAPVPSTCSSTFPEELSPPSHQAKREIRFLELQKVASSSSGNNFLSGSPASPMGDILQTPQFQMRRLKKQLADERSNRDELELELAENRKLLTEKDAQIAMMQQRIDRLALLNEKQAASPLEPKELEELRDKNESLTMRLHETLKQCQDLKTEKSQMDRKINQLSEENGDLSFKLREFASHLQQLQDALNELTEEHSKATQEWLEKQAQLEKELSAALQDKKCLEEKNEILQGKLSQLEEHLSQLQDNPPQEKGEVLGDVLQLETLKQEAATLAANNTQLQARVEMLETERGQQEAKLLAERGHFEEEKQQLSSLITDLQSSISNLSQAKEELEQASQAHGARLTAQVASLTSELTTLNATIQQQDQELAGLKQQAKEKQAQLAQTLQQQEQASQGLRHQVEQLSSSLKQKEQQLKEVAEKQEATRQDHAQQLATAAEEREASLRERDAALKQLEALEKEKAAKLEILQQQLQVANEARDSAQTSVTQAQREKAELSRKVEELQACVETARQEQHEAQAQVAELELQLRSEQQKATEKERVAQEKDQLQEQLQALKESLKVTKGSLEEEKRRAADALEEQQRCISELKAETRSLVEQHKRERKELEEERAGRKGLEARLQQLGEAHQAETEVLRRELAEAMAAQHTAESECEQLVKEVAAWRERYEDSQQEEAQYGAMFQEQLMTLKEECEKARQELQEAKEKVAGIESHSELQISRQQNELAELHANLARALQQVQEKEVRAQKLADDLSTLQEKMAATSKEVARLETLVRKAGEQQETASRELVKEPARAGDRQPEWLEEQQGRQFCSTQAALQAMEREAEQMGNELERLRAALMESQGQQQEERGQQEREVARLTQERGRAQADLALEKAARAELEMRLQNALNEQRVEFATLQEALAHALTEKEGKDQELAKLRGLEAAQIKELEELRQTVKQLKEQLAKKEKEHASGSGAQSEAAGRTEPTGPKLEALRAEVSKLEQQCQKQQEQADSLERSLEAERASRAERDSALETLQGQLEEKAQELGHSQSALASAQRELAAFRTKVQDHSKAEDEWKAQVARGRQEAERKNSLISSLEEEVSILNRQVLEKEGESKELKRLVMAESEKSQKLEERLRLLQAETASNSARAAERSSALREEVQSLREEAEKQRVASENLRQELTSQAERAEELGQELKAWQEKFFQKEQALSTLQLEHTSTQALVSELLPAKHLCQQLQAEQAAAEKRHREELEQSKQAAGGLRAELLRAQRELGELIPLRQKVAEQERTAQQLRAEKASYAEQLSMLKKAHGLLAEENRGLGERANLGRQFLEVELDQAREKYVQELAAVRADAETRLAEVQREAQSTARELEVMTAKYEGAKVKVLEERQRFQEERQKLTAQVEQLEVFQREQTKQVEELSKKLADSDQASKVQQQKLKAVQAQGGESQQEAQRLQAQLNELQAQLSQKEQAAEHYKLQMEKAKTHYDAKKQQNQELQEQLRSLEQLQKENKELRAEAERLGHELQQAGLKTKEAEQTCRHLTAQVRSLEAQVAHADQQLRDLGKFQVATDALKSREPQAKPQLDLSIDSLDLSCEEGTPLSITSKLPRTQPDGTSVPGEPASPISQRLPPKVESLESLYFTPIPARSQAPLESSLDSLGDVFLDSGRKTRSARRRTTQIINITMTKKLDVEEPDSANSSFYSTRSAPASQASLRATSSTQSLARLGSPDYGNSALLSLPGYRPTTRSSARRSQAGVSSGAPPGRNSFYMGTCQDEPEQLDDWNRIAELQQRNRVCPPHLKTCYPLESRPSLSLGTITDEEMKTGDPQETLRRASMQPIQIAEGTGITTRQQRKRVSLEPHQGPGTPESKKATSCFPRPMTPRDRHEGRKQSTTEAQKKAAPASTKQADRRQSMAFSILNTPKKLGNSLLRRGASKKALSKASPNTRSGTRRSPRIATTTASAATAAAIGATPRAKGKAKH

Results are given in words; binding and its absence hold for the method and conditions named. In cells and extracts the contact can be indirect. Here binding means that the protein was enriched with, or labelled near, the bait; the list need not be complete.

Take CKS2 (from UniProt P33552 1-79): the binding entry is on record as “binds”. To “spindle protein NuMA (from UniProt Q14980 1-2115)” belongs “binds”.
